The results in this text go back to PubChem BioAssay AID1825 (The Scripps Research Institute Molecular Screening Center, 2009).

The list shows a part of the results, in another mix than the full data. Activity calls are given as the source filed them. No stated cut-off is given here; in the data, active means inhibition above about 22%; inactive means the rest.

Usually inhibition stands for the drop in the measured response relative to a control, in per cent.

The test in a line: IEC-6 cell viability reduction – luminescence, cytotoxicity control for KLF5 inhibitor project, primary screen (AID 1825).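 Further: 0% = plate median of test compound wells and 100% = cytotoxic reference compound wells.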 The settings on record: IEC-6 cytotoxicity, at 5 µM, active compounds read high.
On to `COc1ccccc1C(=O)NNC(=S)NC(=O)c1ccco1`, for which the inhibition is active: 22.7%.
